Data as given in PMC10409943.
No constants are given. Whether binding was seen depends on the method and setting. In cells and extracts the contact can be indirect. These calls come from enrichment with a bait or labelling near it, and not all partners need be listed.

Sequences of proteins named here, by UniProt entry; tags and fusion partners are left off. Residues count along the entry.
UniProt P10912, residues 19-638: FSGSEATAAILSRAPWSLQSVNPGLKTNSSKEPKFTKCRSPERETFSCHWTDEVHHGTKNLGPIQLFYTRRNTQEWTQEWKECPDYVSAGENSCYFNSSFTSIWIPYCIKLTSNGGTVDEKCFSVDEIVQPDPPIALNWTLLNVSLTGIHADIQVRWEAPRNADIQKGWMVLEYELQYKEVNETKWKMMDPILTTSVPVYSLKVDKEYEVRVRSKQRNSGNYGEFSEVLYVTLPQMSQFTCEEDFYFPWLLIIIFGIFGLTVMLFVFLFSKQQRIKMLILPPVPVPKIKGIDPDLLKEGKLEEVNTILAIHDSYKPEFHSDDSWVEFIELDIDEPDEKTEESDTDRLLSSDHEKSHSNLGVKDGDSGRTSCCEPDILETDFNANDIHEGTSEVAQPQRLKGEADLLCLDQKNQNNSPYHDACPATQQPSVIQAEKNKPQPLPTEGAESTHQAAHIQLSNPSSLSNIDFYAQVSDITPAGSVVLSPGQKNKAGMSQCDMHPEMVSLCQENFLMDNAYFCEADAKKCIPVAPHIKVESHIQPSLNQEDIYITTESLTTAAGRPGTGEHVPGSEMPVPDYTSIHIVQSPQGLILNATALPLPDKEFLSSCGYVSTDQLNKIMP
UniProt P27708: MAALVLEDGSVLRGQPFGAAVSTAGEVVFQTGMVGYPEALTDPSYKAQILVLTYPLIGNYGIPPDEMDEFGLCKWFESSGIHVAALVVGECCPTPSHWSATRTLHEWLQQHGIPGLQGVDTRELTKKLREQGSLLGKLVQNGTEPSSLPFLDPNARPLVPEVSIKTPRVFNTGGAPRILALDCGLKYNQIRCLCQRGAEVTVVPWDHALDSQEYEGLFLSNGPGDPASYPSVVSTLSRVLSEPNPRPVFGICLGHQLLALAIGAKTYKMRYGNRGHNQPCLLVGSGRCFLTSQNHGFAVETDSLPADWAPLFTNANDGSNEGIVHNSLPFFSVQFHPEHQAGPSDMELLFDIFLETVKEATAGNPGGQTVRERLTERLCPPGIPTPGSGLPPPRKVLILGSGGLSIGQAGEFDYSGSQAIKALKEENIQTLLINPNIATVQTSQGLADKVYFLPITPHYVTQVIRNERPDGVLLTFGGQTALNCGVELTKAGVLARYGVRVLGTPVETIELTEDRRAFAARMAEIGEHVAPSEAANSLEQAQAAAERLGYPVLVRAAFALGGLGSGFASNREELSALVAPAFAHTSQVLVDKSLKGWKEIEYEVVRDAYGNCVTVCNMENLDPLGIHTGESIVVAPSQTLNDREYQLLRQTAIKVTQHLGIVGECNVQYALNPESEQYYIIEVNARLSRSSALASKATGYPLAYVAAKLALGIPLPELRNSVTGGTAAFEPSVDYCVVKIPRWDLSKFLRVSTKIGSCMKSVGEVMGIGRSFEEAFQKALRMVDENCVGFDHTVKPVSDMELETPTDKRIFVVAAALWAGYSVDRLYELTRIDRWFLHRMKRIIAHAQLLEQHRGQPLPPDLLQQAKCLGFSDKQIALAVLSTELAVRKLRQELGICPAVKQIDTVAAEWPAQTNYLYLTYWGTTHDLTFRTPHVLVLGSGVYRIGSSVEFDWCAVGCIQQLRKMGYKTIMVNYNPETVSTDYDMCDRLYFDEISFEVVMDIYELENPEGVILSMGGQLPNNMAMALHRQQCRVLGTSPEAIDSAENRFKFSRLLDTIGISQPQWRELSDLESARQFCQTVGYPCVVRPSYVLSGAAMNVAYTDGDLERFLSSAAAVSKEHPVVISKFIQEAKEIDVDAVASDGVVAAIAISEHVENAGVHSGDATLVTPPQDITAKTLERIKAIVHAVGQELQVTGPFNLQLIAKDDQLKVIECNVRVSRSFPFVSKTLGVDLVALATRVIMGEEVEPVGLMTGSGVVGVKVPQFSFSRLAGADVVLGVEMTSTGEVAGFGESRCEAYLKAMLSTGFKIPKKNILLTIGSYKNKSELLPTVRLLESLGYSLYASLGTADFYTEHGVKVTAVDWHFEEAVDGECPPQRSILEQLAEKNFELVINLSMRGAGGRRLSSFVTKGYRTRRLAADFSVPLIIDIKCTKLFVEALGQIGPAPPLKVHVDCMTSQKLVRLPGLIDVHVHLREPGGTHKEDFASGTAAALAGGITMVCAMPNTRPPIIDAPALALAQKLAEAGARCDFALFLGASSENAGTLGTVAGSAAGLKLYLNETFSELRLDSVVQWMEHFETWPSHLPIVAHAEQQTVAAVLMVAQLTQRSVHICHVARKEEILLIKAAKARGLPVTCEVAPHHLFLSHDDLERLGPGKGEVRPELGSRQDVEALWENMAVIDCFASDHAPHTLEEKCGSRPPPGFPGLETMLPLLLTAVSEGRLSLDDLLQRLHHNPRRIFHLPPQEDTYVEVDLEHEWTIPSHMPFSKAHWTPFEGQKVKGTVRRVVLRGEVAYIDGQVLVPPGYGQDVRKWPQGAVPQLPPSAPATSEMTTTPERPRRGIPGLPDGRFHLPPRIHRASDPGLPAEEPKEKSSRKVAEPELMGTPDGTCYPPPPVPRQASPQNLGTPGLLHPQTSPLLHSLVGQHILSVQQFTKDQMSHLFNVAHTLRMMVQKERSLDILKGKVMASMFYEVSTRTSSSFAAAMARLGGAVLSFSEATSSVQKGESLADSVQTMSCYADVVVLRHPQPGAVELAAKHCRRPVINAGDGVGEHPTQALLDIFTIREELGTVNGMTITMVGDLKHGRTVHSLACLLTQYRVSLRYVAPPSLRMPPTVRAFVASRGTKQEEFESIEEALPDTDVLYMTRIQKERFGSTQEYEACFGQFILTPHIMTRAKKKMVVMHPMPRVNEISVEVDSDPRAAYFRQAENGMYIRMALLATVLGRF
UniProt P60660: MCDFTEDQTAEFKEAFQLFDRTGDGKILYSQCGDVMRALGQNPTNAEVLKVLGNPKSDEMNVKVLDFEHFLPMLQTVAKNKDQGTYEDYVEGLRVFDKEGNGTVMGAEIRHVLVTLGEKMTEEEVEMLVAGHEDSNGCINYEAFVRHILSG
UniProt P34932: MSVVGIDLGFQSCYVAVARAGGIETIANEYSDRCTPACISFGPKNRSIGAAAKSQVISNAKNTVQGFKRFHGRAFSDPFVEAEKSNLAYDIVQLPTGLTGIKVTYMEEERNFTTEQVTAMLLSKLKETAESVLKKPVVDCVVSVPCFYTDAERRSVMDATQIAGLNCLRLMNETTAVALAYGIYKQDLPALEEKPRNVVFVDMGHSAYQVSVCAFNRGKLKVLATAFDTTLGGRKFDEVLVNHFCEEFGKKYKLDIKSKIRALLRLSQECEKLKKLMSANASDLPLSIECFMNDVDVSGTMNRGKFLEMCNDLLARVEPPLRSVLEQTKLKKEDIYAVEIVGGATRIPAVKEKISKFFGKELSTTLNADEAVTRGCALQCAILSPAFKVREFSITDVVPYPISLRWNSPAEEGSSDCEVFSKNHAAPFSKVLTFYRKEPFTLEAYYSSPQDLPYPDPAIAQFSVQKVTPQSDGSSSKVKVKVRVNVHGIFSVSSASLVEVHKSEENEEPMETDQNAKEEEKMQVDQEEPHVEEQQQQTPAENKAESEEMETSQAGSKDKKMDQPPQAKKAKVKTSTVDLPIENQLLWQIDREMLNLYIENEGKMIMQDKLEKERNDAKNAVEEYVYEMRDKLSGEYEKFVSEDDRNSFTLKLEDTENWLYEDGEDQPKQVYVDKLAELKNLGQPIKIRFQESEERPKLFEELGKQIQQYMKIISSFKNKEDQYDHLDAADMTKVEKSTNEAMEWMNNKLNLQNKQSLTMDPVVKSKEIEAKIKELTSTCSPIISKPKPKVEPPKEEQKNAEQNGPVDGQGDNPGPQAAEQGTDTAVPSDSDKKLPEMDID
UniProt Q9P258: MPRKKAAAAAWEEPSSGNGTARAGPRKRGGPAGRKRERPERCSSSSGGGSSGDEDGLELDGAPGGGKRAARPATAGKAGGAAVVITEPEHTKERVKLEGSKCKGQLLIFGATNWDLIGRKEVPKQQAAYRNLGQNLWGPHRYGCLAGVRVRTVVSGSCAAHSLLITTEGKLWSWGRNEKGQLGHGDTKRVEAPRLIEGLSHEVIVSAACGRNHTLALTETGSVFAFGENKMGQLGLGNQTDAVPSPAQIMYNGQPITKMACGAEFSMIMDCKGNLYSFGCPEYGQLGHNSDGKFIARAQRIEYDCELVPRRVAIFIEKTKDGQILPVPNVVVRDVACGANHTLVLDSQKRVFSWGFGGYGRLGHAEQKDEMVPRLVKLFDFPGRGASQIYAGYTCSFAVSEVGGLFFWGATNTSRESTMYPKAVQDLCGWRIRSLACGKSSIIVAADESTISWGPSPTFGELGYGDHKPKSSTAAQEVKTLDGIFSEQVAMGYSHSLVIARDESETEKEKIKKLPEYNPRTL
UniProt P11142: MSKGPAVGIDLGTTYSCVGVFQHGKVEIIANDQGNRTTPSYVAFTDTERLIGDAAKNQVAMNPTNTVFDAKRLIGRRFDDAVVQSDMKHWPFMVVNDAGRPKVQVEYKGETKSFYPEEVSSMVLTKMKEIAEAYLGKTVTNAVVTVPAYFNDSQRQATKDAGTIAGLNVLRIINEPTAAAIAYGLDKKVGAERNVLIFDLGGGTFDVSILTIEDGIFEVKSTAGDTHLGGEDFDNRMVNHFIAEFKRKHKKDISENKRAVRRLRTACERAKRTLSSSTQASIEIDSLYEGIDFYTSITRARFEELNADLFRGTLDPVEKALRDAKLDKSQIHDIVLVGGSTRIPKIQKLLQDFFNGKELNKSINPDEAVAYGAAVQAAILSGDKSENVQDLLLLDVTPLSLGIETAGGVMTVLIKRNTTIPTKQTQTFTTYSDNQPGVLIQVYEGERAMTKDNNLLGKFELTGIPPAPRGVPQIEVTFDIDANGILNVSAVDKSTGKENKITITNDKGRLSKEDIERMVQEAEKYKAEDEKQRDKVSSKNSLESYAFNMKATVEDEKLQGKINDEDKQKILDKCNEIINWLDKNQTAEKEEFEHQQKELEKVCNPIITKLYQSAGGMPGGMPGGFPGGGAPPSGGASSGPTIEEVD
UniProt P68104: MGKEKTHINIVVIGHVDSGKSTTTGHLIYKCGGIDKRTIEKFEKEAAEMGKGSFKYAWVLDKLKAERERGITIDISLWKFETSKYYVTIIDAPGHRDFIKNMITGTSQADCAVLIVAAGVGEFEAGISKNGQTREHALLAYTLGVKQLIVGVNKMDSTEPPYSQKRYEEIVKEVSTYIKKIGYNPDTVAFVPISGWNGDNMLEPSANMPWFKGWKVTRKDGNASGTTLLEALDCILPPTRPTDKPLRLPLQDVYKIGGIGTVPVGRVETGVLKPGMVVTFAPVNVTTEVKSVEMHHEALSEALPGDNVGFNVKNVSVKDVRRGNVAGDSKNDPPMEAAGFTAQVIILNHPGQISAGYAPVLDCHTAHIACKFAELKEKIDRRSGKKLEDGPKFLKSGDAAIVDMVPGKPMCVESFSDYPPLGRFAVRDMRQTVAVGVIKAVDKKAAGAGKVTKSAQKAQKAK
UniProt O15212: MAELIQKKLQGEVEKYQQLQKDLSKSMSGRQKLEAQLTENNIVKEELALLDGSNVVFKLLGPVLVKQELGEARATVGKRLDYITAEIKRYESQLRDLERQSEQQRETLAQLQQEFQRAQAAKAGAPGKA
UniProt Q15008: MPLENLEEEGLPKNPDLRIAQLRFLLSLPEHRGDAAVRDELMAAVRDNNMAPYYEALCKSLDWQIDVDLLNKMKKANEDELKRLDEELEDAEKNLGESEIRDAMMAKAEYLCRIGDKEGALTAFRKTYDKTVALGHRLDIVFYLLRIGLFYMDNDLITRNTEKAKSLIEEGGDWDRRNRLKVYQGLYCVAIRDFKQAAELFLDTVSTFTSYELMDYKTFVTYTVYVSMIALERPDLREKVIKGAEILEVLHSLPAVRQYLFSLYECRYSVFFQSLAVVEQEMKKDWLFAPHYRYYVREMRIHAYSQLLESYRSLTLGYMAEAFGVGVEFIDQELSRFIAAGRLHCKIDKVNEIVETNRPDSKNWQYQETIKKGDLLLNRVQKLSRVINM
UniProt P26641: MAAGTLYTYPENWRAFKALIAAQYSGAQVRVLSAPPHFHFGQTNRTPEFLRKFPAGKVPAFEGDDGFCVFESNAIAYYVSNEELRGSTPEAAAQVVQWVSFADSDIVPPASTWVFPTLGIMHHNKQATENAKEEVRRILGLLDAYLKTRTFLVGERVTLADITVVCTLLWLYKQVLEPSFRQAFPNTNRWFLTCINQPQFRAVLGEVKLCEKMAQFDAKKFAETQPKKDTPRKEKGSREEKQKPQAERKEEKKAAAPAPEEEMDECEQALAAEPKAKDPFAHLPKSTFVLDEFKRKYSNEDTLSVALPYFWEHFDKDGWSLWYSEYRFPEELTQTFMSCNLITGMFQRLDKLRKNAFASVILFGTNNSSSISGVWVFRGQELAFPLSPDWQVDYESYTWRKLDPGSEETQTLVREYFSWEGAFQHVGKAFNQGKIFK
UniProt P63241: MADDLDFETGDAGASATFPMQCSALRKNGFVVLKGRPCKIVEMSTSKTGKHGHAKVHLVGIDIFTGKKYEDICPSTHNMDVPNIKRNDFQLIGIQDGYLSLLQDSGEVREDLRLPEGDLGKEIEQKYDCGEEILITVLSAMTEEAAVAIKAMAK

B1: RPN1 (protein, UniProt P04843 24-607)
chain: ASSEAPPLINEDVKRTVDLSSHLAKVTAEVVLAHLGGGSTSRATSFLLALEPELEARLAHLGVQVKGEDEEENNLEVRETKIKGKSGRFFTVKLPVALDPGAKISVIVETVYTHVLHPYPTQITQSEKQFVVFEGNHYFYSPYPTKTQTMRVKLASRNVESYTKLGNPTRSEDLLDYGPFRDVPAYSQDTFKVHYENNSPFLTITSMTRVIEVSHWGNIAVEENVDLKHTGAVLKGPFSRYDYQRQPDSGISSIRSFKTILPAAAQDVYYRDEIGNVSTSHLLILDDSVEMEIRPRFPLFGGWKTHYIVGYNLPSYEYLYNLGDQYALKMRFVDHVFDEQVIDSLTVKIILPEGAKNIEIDSPYEISRAPDELHYTYLDTFGRPVIVAYKKNLVEQHIQDIVVHYTFNKVLMLQEPLLVVAAFYILFFTVIIYVRLDFSITKDPAAEARMKVACITEQVLTLVNKRIGLYRHFDETVNRYKQSRDISTLNSGKKSLETEHKALTSEIALLQSRLKTEGSDLCDRVSEMQKLDAQVKELVLKSAVEAERLVAGKLKKDTYIENEKLISGKRQELVTKIDHILDAL
B2: CRIP2 (protein, UniProt P52943 1-208)
chain: MASKCPKCDKTVYFAEKVSSLGKDWHKFCLKCERCSKTLTPGGHAEHDGKPFCHKPCYATLFGPKGVNIGGAGSYIYEKPLAEGPQVTGPIEVPAARAEERKASGPPKGPSRASSVTTFTGEPNTCPRCSKKVYFAEKVTSLGKDWHRPCLRCERCGKTLTPGGHAEHDGQPYCHKPCYGILFGPKGVNTGAVGSYIYDRDPEGKVQP
B3: high mobility group nucleosome binding domain 1 (protein, UniProt P05114 1-100)
chain: MPKRKVSSAEGAAKEEPKRRSARLSAKPPAKVEAKPKKAAAKDKSSDKKVQTKGKRGAKGKQAEVANQETKEDLPAENGETKTEESPASDEAGEKEAKSD
B4: LASP1 (protein, UniProt Q14847 1-261)
chain: MNPNCARCGKIVYPTEKVNCLDKFWHKACFHCETCKMTLNMKNYKGYEKKPYCNAHYPKQSFTMVADTPENLRLKQQSELQSQVRYKEEFEKNKGKGFSVVADTPELQRIKKTQDQISNIKYHEEFEKSRMGPSGGEGMEPERRDSQDGSSYRRPLEQQQPHHIPTSAPVYQQPQQQPVAQSYGGYKEPAAPVSIQRSAPGGGGKRYRAVYDYSAADEDEVSFQDGDTIVNVQQIDDGWMYGTVERTGDTGMLPANYVEAI
B5: RCN1 (protein, UniProt Q15293 30-331)
chain: KPTVRKERVVRPDSELGERPPEDNQSFQYDHEAFLGKEDSKTFDQLTPDESKERLGKIVDRIDNDGDGFVTTEELKTWIKRVQKRYIFDNVAKVWKDYDRDKDDKISWEEYKQATYGYYLGNPAEFHDSSDHHTFKKMLPRDERRFKAADLNGDLTATREEFTAFLHPEEFEHMKEIVVLETLEDIDKNGDGFVDQDEYIADMFSHEENGPEPDWVLSEREQFNEFRDLNKDGKLDKDEIRHWILPQDYDHAQAEARHLVYESDKNKDEKLTKEEILENWNMFVGSQATNYGEDLTKNHDEL
B6: PLIN3 (protein, UniProt O60664 1-434)
chain: MSADGAEADGSTQVTVEEPVQQPSVVDRVASMPLISSTCDMVSAAYASTKESYPHIKTVCDAAEKGVRTLTAAAVSGAQPILSKLEPQIASASEYAHRGLDKLEENLPILQQPTEKVLADTKELVSSKVSGAQEMVSSAKDTVATQLSEAVDATRGAVQSGVDKTKSVVTGGVQSVMGSRLGQMVLSGVDTVLGKSEEWADNHLPLTDAELARIATSLDGFDVASVQQQRQEQSYFVRLGSLSERLRQHAYEHSLGKLRATKQRAQEALLQLSQVLSLMETVKQGVDQKLVEGQEKLHQMWLSWNQKQLQGPEKEPPKPEQVESRALTMFRDIAQQLQATCTSLGSSIQGLPTNVKDQVQQARRQVEDLQATFSSIHSFQDLSSSILAQSRERVASAREALDHMVEYVAQNTPVTWLVGPFAPGITEKAPEEKK
B7: ITIH3 (protein, UniProt Q06033 35-651)
chain: LPEGVANGIEVYSTKINSKVTSRFAHNVVTMRAVNRADTAKEVSFDVELPKTAFITNFTLTIDGVTYPGNVKEKEVAKKQYEKAVSQGKTAGLVKASGRKLEKFTVSVNVAAGSKVTFELTYEELLKRHKGKYEMYLKVQPKQLVKHFEIEVDIFEPQGISMLDAEASFITNDLLGSALTKSFSGKKGHVSFKPSLDQQRSCPTCTDSLLNGDFTITYDVNRESPGNVQIVNGYFVHFFAPQGLPVVPKNVAFVIDISGSMAGRKLEQTKEALLRILEDMQEEDYLNFILFSGDVSTWKEHLVQATPENLQEARTFVKSMEDKGMTNINDGLLRGISMLNKAREEHRIPERSTSIVIMLTDGDANVGESRPEKIQENVRNAIGGKFPLYNLGFGNNLNYNFLENMALENHGFARRIYEDSDADLQLQGFYEEVANPLLTGVEMEYPENAILDLTQNTYQHFYDGSEIVVAGRLVDEDMNSFKADVKGHGATNDLTFTEEVDMKEMEKALQERDYIFGNYIERLWAYLTIEQLLEKRKNAHGEEKENLTARALDLSLKYHFVTPLTSMVVTKPEDNEDERAIADKPGEDAEATPVSPAMSYLTSYQPPQNPYYYVDGD
B8: SLC1A5 (protein, UniProt Q15758 1-541)
chain: MVADPPRDSKGLAAAEPTANGGLALASIEDQGAAAGGYCGSRDQVRRCLRANLLVLLTVVAVVAGVALGLGVSGAGGALALGPERLSAFVFPGELLLRLLRMIILPLVVCSLIGGAASLDPGALGRLGAWALLFFLVTTLLASALGVGLALALQPGAASAAINASVGAAGSAENAPSKEVLDSFLDLARNIFPSNLVSAAFRSYSTTYEERNITGTRVKVPVGQEVEGMNILGLVVFAIVFGVALRKLGPEGELLIRFFNSFNEATMVLVSWIMWYAPVGIMFLVAGKIVEMEDVGLLFARLGKYILCCLLGHAIHGLLVLPLIYFLFTRKNPYRFLWGIVTPLATAFGTSSSSATLPLMMKCVEENNGVAKHISRFILPIGATVNMDGAALFQCVAAVFIAQLSQQSLDFVKIITILVTATASSVGAAGIPAGGVLTLAIILEAVNLPVDHISLILAVDWLVDRSCTVLNVEGDALGAGLLQNYVDRTESRSTEPELIQVKSELPLDPLPVPTEEGNPLLKHYRGPAGDATVASEKESVM
B9: TES (protein, UniProt Q9UGI8 1-421)
chain: MDLENKVKKMGLGHEQGFGAPCLKCKEKCEGFELHFWRKICRNCKCGQEEHDVLLSNEEDRKVGKLFEDTKYTTLIAKLKSDGIPMYKRNVMILTNPVAAKKNVSINTVTYEWAPPVQNQALARQYMQMLPKEKQPVAGSEGAQYRKKQLAKQLPAHDQDPSKCHELSPREVKEMEQFVKKYKSEALGVGDVKLPCEMDAQGPKQMNIPGGDRSTPAAVGAMEDKSAEHKRTQYSCYCCKLSMKEGDPAIYAERAGYDKLWHPACFVCSTCHELLVDMIYFWKNEKLYCGRHYCDSEKPRCAGCDELIFSNEYTQAENQNWHLKHFCCFDCDSILAGEIYVMVNDKPVCKPCYVKNHAVVCQGCHNAIDPEVQRVTYNNFSWHASTECFLCSCCSKCLIGQKFMPVEGMVFCSVECKKRMS

The molecules below were run against growth hormone receptor (human (endogenous in RL95-2)) (UniProt P10912) (assay: affinity purification with mass spectrometry; RL95-2 whole cell lysates (1 mg/ml), cells serum-starved and treated with or without 500 ng/ml GH; precipitated separately with anti-GHRIC and anti-GHREC antibodies on protein-G magnetic beads, eluates combined; peptides found in the IgG control filtered out; n = 3 per group).

binding	Molecule
binds	CAD (from UniProt P27708 1-2225)
binds	MYL6 (from UniProt P60660 1-151)
binds	HSPA4 (from UniProt P34932 1-840)
binds	EEF1D (from UniProt P29692 1-281)
binds	RCC2 (from UniProt Q9P258 1-522)
binds	HSPA8 (from UniProt P11142 1-646)
binds	Epidermal growth factor receptor (from UniProt P00533 25-1210)
binds	FLNA (from UniProt P21333 1-2647)
binds	Eukaryotic translation elongation factor 1 alpha-1 (from UniProt P68104 1-462)
binds	PFDN6 (from UniProt O15212 1-129)
binds	LAMC1 (from UniProt P11047 34-1609)
binds	PSMD6 (from UniProt Q15008 1-389)
binds	USP5 (from UniProt P45974 1-858)
binds	Eukaryotic Translation Elongation Factor 1 Gamma (from UniProt P26641 1-437)
binds	EIF5A (from UniProt P63241 1-154)
binds	PFDN2 (from UniProt Q9UHV9 1-154)
binds	DDX21 (from UniProt Q9NR30 1-783)
binds	SHTN1 (from UniProt A0MZ66 1-631)
binds	B1
binds	B2
binds	B3
binds	B4
binds	B5
binds	B6
binds	B7
binds	B8
binds	B9
